Among the data in patent publication US20230175040 are binding result and Kd values, retold here.

For series [1], the system named is T1, HBD (SHBD), hybrid-binding domain of RNase H1 (Thermotoga maritima).
T1 sequence (limits assumed): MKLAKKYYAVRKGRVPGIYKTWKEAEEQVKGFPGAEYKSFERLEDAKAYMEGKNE
Briefly: EMSA. Conditions: discrete complex, smear at higher concentration; 150 mM NaCl, pH 7.4, room temperature; purified recombinant protein; label: 32P at RNA 5'-end; DNA:RNA hybrid.

In series [2] the test system is T2, THBD (three linked HBDs, Cys-free linkers) (Thermotoga maritima).
T2 sequence: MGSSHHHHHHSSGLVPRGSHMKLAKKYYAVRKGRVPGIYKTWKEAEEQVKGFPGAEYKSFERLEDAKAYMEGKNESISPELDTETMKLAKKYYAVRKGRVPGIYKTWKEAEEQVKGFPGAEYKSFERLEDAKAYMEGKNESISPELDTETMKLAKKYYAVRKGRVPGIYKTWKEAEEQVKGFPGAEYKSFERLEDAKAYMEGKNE
Briefly: EMSA. Conditions: purified recombinant protein. (A gel shift assay detects complexes by their altered migration in electrophoresis.)

Series [3] concerns T3, DHBD (two linked HBDs, Cys-free SIS linker) (Thermotoga maritima).
T3 sequence: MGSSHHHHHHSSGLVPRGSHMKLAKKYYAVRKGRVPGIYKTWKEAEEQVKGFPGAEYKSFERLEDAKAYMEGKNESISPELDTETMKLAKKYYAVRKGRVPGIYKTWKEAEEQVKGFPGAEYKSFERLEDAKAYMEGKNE
Briefly: EMSA. Conditions: two complexes; affinity over 10-fold above SHBD; 150 mM NaCl, pH 7.4; purified recombinant protein; label: 32P at RNA 5'-end; DNA:RNA hybrid.

The test system of series [4] is T1, HBD (SHBD), hybrid-binding domain of RNase H1 (Thermotoga maritima). Briefly: SPR. Conditions: steady state, ±180; 8.29 uM in Example 9 [p372]; kinetics too fast to fit; pH 7.4, 100 mM NaCl, 25 C; purified recombinant protein; label: 5'-biotin; DNA:RNA hybrid.
Series [5] deals with T2, THBD (three linked HBDs, Cys-free linkers) (Thermotoga maritima). Briefly: SPR. Conditions: steady state, ±0.006; kinetic model 0.19 ± 0.02 nM; 0.37 nM in Example 9; pH 7.4, 100 mM NaCl, 25 C; purified recombinant protein; label: 5'-biotin; DNA:RNA hybrid.
The test system of series [6] is T3, DHBD (two linked HBDs, Cys-free SIS linker) (Thermotoga maritima). As to the kind of experiment: SPR. Conditions: steady state, ±1; kinetic model 12 ± 2 nM; 29 nM steady state in Example 9 [p373]; pH 7.4, 100 mM NaCl, 25 C; purified recombinant protein; label: 5'-biotin; DNA:RNA hybrid.

For at least one entry, the source does not settle the construct or the ends of the probe. For some of these results: A negative result means that nothing was seen under these conditions. Protein sequences can lack the tags named with them.

As for “GAAAUACGGUCCGAAACGUUG / CAACGTTTCGGACCGTATTTC [21 bp RNA-DNA hybrid]”, the binding result in series [1] is “binds”; in series [2] (two complexes, at least 10-fold above DHBD, 150 mM NaCl, pH 7.4, label: 32P at RNA 5'-end, DNA:RNA hybrid), “binds”; in series [3], “binds”.
Consider GAAAUACGGUCCGAAACGUUG [21 nt ssRNA], for which the binding result in series [2] (THBD does not bind 21 nt ssRNA, label: 5'-32P, variant of 21 bp RNA-DNA hybrid) is “no binding”.
By Kd is commonly meant a measure of binding affinity in units of concentration. For “TCAACGTTTCGGACCGTATTTCTTTTGAAAUACGGUCCGAAACGUUG [21 bp RNA-DNA hybrid hairpin (47 nt chimeric)]”, the values for the Kd in series [4], in series [5] and in series [6] were 7970 nM, 0.38 nM and 20 nM, respectively.
